Measurements reported in PubChem BioAssay AID1159578 (Peter MacCallum Cancer Centre, 2015)
Shown is a random part of about 18,000 deposited reagents. About 1,030 of them (5.7%) were called active. 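Inactive calls also include pools with fewer than 3300 nuclei, whose migration was not assessed.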 The raw values are shown without normalisation.

- Aim: 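Knock-downs that alter how fast lymphatic endothelial cells migrate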 (primary screen)
- Cells: human lymphatic endothelial cells
- Knock-down reagent: siRNA pool against human genes, 40 nM
- Timing: 48 h after transfection
- Read-out: 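Cells stained with dye and imaged after a scratch; covered wound area and nuclei counted, duplicates averaged, migration set against mock wells and turned into a robust z-score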
- Scale: migration robust z-score: higher = faster migration into the scratch; migration relative to mock: higher = more scratch area covered than mock; nuclei per well: higher = more cells in the well
- Rule for the call: 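Migration changed when robust z exceeds 2 or falls below -2 and mean nuclei number is at least 3300; otherwise not called changed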
- Meaning of the calls: active = migration changed; inactive = no migration change, or too few cells

no.	gene	migration robust z-score	migration class with cell-count check	migration relative to mock	nuclei per well, duplicate mean	activity call
1	CYB5D1	-1.76	migration z between -2 and 2; enough cells	0.43	5708	inactive
2	UGT1A10	-1.77	migration z between -2 and 2; enough cells	0.46	6030	inactive
3	XRCC6	-0.62	migration z between -2 and 2; enough cells	0.68	5318	inactive
4	ADAMDEC1	0.65	migration z between -2 and 2; enough cells	0.93	6342	inactive
5	CFAP107	0.1	migration z between -2 and 2; enough cells	0.91	6972	inactive
6	PCDHGA10	-0.93	migration z between -2 and 2; enough cells	0.64	5474	inactive
7	MAMLD1	0.04	migration z between -2 and 2; enough cells	0.89	4800	inactive
8	ATG4B	0.47	migration z between -2 and 2; enough cells	0.89	5110	inactive
9	TSPAN13	0.02	migration z between -2 and 2; enough cells	0.9	7403	inactive
10	PIP4K2C	-0.65	migration z between -2 and 2; enough cells	0.68	5246	inactive
11	CCL21	-1.12	migration z between -2 and 2; enough cells	0.59	4762	inactive
12	KRTAP1-1	0.25	migration z between -2 and 2; enough cells	0.95	6083	inactive
13	GTF3A	0.42	migration z between -2 and 2; enough cells	0.88	4693	inactive
14	SUMO1	-0.83	migration z between -2 and 2; enough cells	0.64	6166	inactive
15	CAMSAP1	-0.49	migration z between -2 and 2; enough cells	0.76	5972	inactive
16	TYW1	0.4	migration z between -2 and 2; enough cells	0.99	6141	inactive
17	CHRNA4	-0.16	migration z between -2 and 2; enough cells	0.78	5688	inactive
18	JRKL	-0.31	migration z between -2 and 2; enough cells	0.74	5584	inactive
19	MYOZ2	1.35	migration z between -2 and 2; enough cells	1.23	5296	inactive
20	SSX4	0.68	migration z between -2 and 2; enough cells	0.94	5716	inactive
21	WFDC2	-0.01	migration z between -2 and 2; enough cells	0.88	8004	inactive
22	ADO	-1.97	migration z between -2 and 2; enough cells	0.38	5946	inactive
23	PLK2	-0.72	migration z between -2 and 2; enough cells	0.66	4546	inactive

Entries listed so far whose target name starts with P or p:
gene	migration robust z-score	migration class with cell-count check	migration relative to mock	nuclei per well, duplicate mean	activity call
PCDHGA10	-0.93	migration z between -2 and 2; enough cells	0.64	5474	inactive
PIP4K2C	-0.65	migration z between -2 and 2; enough cells	0.68	5246	inactive
PLK2	-0.72	migration z between -2 and 2; enough cells	0.66	4546	inactive

The results go on.
no.	gene	migration robust z-score	migration class with cell-count check	migration relative to mock	nuclei per well, duplicate mean	activity call
24	UAP1	0.26	migration z between -2 and 2; enough cells	0.86	5635	inactive
25	RGS7	0	migration z between -2 and 2; enough cells	0.8	6218	inactive
26	ROBO4	0.84	migration z between -2 and 2; enough cells	1.1	7582	inactive
27	SELENOT	1.66	migration z between -2 and 2; enough cells	1.31	6382	inactive
28	ACTN4	-1.36	migration z between -2 and 2; enough cells	0.53	5202	inactive
29	HTR2C	1.35	migration z between -2 and 2; enough cells	1.06	5351	inactive
30	CHPT1	0.16	migration z between -2 and 2; enough cells	0.84	3800	inactive
31	CNN1	-0.66	migration z between -2 and 2; enough cells	0.72	5336	inactive
32	CRCT1	-3.02	migration z below -2; enough cells	0.1	3696	active
33	ZPR1	0.03	migration z between -2 and 2; enough cells	0.89	5274	inactive
34	CHCHD2	0.6	migration z between -2 and 2; enough cells	1.03	7368	inactive
35	LOC652859 (retired record)	0.8	migration z between -2 and 2; enough cells	0.96	7286	inactive
36	FAM135A	-2	migration z between -2 and 2; enough cells	0.36	5960	inactive
37	AGO2	-0.46	migration z between -2 and 2; enough cells	0.72	6433	inactive
38	NUP155	0.08	migration z between -2 and 2; enough cells	0.9	5454	inactive
39	MRPL55	0	migration z between -2 and 2; enough cells	0.88	6579	inactive
40	DCST2	0.76	migration z between -2 and 2; enough cells	1.08	7337	inactive
41	ERGIC1	0.69	migration z between -2 and 2; enough cells	1.07	4964	inactive
42	ACTL7B	0.16	migration z between -2 and 2; enough cells	0.92	4391	inactive
43	MIER2	0.17	migration z between -2 and 2; enough cells	0.93	5443	inactive
44	OLIG1	-0.55	migration z between -2 and 2; enough cells	0.75	5696	inactive
45	ATMIN	-1.27	migration z between -2 and 2; enough cells	0.55	6316	inactive
46	OLIG2	-1.68	migration z between -2 and 2; enough cells	0.48	6584	inactive
47	SEC62	-0.72	migration z between -2 and 2; enough cells	0.7	5066	inactive
48	GDNF	0.58	migration z between -2 and 2; enough cells	1.04	5486	inactive
49	SLC35B1	-0.15	migration z between -2 and 2; enough cells	0.85	6092	inactive
50	PPIL4	0.88	migration z between -2 and 2; enough cells	0.98	4977	inactive
51	ASPRV1	1.06	migration z between -2 and 2; enough cells	1.01	5432	inactive
52	KRTCAP2	0.55	migration z between -2 and 2; enough cells	1.02	5718	inactive
53	CAPN10	0.18	migration z between -2 and 2; enough cells	0.84	4942	inactive
54	KRTAP1-5	-0.21	migration z between -2 and 2; enough cells	0.83	5060	inactive
55	EIF4E3	0.02	migration z between -2 and 2; enough cells	0.81	4885	inactive
56	SLC9A7	0.96	migration z between -2 and 2; enough cells	1.14	6376	inactive
57	OR7G3	0.05	migration z between -2 and 2; enough cells	0.9	5268	inactive
